One assay addresses T1, Myc-tagged TIN2 (UniProt Q9BSI4).
T1 sequence: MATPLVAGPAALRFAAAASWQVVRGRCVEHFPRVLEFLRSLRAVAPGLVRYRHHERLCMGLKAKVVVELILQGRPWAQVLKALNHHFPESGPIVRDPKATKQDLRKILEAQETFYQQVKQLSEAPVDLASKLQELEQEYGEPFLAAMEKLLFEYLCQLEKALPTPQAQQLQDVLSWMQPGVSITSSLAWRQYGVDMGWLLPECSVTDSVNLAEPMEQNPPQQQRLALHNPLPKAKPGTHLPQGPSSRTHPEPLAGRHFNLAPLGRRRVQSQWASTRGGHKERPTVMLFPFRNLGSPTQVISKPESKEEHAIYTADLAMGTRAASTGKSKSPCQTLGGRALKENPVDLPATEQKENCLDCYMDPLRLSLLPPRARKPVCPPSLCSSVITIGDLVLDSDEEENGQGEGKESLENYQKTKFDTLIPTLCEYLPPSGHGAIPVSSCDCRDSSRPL
The experiment in a line: co-IP; Myc-TIN2, FLAG-TRF2 and the FLAG-TPP1 construct transiently coexpressed in HeLa-EM2-11ht cells; c-Myc antibody 9E10, then protein A/G agarose overnight at 4 °C; blot with anti-FLAG (Figure 3A).

Sequences of proteins named here, by UniProt entry; tags and fusion partners are left off. A change or cut given only in a name is not applied to a line headed by its entry.
UniProt Q96AP0: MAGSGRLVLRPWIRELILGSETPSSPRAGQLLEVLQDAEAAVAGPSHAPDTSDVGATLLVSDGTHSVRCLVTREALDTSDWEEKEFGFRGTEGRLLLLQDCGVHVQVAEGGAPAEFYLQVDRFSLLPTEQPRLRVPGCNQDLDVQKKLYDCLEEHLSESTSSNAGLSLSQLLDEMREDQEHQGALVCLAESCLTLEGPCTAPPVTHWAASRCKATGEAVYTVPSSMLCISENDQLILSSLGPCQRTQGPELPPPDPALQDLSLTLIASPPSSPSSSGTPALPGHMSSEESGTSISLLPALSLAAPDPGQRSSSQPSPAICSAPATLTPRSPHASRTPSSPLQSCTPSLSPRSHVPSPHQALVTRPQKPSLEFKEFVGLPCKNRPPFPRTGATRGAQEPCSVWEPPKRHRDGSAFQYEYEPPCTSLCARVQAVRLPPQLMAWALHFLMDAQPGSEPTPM

Assay [1] deals with FLAG-tagged TPP1 L511A (human) (UniProt Q96AP0). Kind of assay: co-IP; FLAG-TPP1 construct and Myc-POT1 or Myc-TIN2 transiently coexpressed in HeLa-EM2-11ht cells; lysate on anti-FLAG M2 affinity gel overnight at 4 °C; blot with anti-Myc and anti-FLAG (Figure 2A, 2B).
The target in assay [2] is FLAG-tagged TPP1 D496A (human) (UniProt Q96AP0). The assay is described as above.
The target of assay [3] is FLAG-tagged TPP1 R519A/L520A (human) (UniProt Q96AP0). The description is as above.
Assay [4] deals with FLAG-tagged TPP1 L524A/W527A (human) (UniProt Q96AP0). The assay is described as above.
In assay [5] the target is FLAG-tagged TPP1 F500A/Q501A (human) (UniProt Q96AP0). The description is as above.
Assay [6] has as its target FLAG-tagged TPP1 P507A (human) (UniProt Q96AP0). The assay is described as above.
In assay [7] the target is FLAG-tagged TPP1 Y502A/Y504A (human) (UniProt Q96AP0). The assay is described as above.

Results are given in words; binding and its absence hold for the method and conditions named. Binding seen in cells or lysates may run through a third protein. For part of these data: Binding calls can cover weak binding; strength is not graded here. Sequences can lack the tags named with a protein.

With “FLAG-tagged TPP1 (human TPP1-S isoform), wild type (from UniProt Q96AP0)”, the binding result in the assay with Myc-tagged TIN2 is “binds”.

Regarding “FLAG-tagged TPP1 R519A/L520A (from UniProt Q96AP0)”, in the assay with Myc-tagged TIN2, the binding entry was “no binding”.

B1: Myc-tagged TIN2 (protein, UniProt Q9BSI4 1-451)
chain: MATPLVAGPAALRFAAAASWQVVRGRCVEHFPRVLEFLRSLRAVAPGLVRYRHHERLCMGLKAKVVVELILQGRPWAQVLKALNHHFPESGPIVRDPKATKQDLRKILEAQETFYQQVKQLSEAPVDLASKLQELEQEYGEPFLAAMEKLLFEYLCQLEKALPTPQAQQLQDVLSWMQPGVSITSSLAWRQYGVDMGWLLPECSVTDSVNLAEPMEQNPPQQQRLALHNPLPKAKPGTHLPQGPSSRTHPEPLAGRHFNLAPLGRRRVQSQWASTRGGHKERPTVMLFPFRNLGSPTQVISKPESKEEHAIYTADLAMGTRAASTGKSKSPCQTLGGRALKENPVDLPATEQKENCLDCYMDPLRLSLLPPRARKPVCPPSLCSSVITIGDLVLDSDEEENGQGEGKESLENYQKTKFDTLIPTLCEYLPPSGHGAIPVSSCDCRDSSRPL
As for B1, the binding entry in assay [1] is “binds”; in assay [2], “no binding”; in assay [3], “no binding”; in assay [4], “no binding”; in assay [5], “no binding”; in assay [6], “no binding”. The binding entry in assay [7] is listed as “no binding”.
